The target in assay [1] is T1, VPY-GFP (VAPYRIN) (M. truncatula) (UniProt D3J162).
T1 sequence: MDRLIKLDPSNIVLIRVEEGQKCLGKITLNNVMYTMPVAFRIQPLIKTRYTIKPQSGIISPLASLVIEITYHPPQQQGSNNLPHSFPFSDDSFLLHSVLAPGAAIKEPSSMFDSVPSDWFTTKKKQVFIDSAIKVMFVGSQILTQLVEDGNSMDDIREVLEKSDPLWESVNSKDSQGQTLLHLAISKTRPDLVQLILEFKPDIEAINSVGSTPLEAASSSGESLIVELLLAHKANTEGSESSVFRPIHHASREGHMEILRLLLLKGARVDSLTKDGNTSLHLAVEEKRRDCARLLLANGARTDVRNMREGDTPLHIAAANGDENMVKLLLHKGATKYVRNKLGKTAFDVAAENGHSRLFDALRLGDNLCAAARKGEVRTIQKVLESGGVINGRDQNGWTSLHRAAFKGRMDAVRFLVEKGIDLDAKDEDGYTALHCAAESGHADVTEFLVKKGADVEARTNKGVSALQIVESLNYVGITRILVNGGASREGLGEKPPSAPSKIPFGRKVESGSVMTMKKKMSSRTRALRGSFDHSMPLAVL
As to the kind of experiment: co-IP; anti-GFP nanobody trap (GFP-Trap) on lysates of protoplasts from N. benthamiana leaves co-expressing pairs of proteins (with p19); extraction buffer 50 mM Tris-HCl pH 7.5, 150 mM NaCl, 10% glycerol, 2 mM EDTA, 5 mM DTT, 1% IGEPAL CA-630; blots with anti-GFP and anti-mCherry.

In assay [2] the target is mCherry-RPG (RHIZOBIUM-DIRECTED POLAR GROWTH) (M. truncatula). As to the kind of experiment: co-IP; anti-RFP nanobody trap (RFP-Trap Magnetic agarose, 4 °C, 90 min) on lysates of protoplasts from N. benthamiana leaves co-expressing pairs of proteins (with p19); extraction buffer 50 mM Tris-HCl pH 7.5, 150 mM NaCl, 10% glycerol, 2 mM EDTA, 5 mM DTT, 1% IGEPAL CA-630; blots with anti-GFP and anti-mCherry.

These are yes or no findings as the source states them, for the method shown. Binding seen in cells or lysates may run through a third protein. Binding calls can cover weak binding; strength is not graded here. Sequences can lack the tags named with a protein.

Data on two molecules can be found in publication PMC9991063.

mCherry-EXO70H4 (M. truncatula): in assay [1], the binding entry is reported as “binds”.

B1: VPY-GFP (VAPYRIN) (protein, UniProt D3J162 1-541)
chain: MDRLIKLDPSNIVLIRVEEGQKCLGKITLNNVMYTMPVAFRIQPLIKTRYTIKPQSGIISPLASLVIEITYHPPQQQGSNNLPHSFPFSDDSFLLHSVLAPGAAIKEPSSMFDSVPSDWFTTKKKQVFIDSAIKVMFVGSQILTQLVEDGNSMDDIREVLEKSDPLWESVNSKDSQGQTLLHLAISKTRPDLVQLILEFKPDIEAINSVGSTPLEAASSSGESLIVELLLAHKANTEGSESSVFRPIHHASREGHMEILRLLLLKGARVDSLTKDGNTSLHLAVEEKRRDCARLLLANGARTDVRNMREGDTPLHIAAANGDENMVKLLLHKGATKYVRNKLGKTAFDVAAENGHSRLFDALRLGDNLCAAARKGEVRTIQKVLESGGVINGRDQNGWTSLHRAAFKGRMDAVRFLVEKGIDLDAKDEDGYTALHCAAESGHADVTEFLVKKGADVEARTNKGVSALQIVESLNYVGITRILVNGGASREGLGEKPPSAPSKIPFGRKVESGSVMTMKKKMSSRTRALRGSFDHSMPLAVL
For B1, the binding result in assay [2] is given as “binds”.
